From PubChem BioAssay AID588590 (National Center for Advancing Translational Sciences (NCATS), 2011)
Among all 390,000 compounds or so, about 4,000 (1%) were called active. This list was built around the results that the source calls inconclusive (neither active nor inactive); the mix of calls is not that of the screen. The call rests on the fitted dose curve; in most records, active means well fitted inhibition curve with a large enough effect; inconclusive means small, poorly fitted or top-dose-only effect, or another doubt; inactive means no such curve, though single readings can be large or run the other way. Where the call is inconclusive, the potency comes from a doubtful curve fit.
Potency means the concentration at half of the fitted maximal effect.

By UniProt entry, the sequences of proteins in these tests, tags left out. Where a name states a change or a piece, a line headed by the entry shows the natural chain unless it says otherwise.
UniProt Q9UNA4: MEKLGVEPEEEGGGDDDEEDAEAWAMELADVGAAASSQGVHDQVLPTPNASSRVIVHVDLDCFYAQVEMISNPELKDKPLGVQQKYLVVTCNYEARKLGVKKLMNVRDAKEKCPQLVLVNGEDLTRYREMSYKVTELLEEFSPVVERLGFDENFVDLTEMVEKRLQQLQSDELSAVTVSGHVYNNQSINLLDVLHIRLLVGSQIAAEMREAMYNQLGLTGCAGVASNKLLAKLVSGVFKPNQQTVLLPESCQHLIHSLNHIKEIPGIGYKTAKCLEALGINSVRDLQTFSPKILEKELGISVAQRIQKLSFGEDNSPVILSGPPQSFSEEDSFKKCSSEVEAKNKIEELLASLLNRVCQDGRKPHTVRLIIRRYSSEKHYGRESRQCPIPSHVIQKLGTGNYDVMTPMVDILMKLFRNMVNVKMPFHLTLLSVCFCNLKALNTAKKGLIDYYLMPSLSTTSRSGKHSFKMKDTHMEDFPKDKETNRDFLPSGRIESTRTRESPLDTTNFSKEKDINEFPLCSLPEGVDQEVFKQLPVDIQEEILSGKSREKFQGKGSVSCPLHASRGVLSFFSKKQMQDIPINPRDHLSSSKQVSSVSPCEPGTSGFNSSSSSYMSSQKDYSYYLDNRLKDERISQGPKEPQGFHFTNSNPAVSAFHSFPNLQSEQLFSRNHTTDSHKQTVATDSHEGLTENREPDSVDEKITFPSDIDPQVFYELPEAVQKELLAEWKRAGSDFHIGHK

What follows are compounds tested against DNA polymerase iota (Homo sapiens) (UniProt Q9UNA4) (assay: qHTS for Inhibitors of Polymerase Iota). Conditions: Pol iota fluorescent replication assay, 10 min; series mostly up to 115 µM.
Summary of the method: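 Fluorescent replication assay read twice, at 0 min and 10 min after adding 50 nM (final) substrate. Enzyme (10 nM) and compounds were first incubated 15 min at room temperature; enzyme-free buffer wells were negative controls.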
In the case of Cc1ccc(S(=O)(=O)N(Cc2ccc(F)cc2)Cc2ccco2)cc1, the Potency is reported as inconclusive: 44.7 µM [inhibitor, partial curve, poor fit]. With COc1ccc(Cl)cc1NC(=O)CN(C)C1CCCCC1 the Potency was “inactive”. COc1cc(C(=O)Nc2nnc(CC(C)(C)C)s2)cc(OC)c1OC was tested, and the Potency was inconclusive: 79.4 µM [inhibitor, partial curve, poor fit]. COC(=O)[C@@H]1C[C@H]2CC[C@H](O)C[C@H]2N1Cc1ccc(N2CCN(C)CC2)cc1 was tested, and the Potency was inconclusive: 28.2 µM [inhibitor, single point]. For COC(=O)CSc1[nH]c2ccc(F)cc2c1[N+](=O)[O-], the Potency was inconclusive: 25.1 µM [inhibitor, single point]. O=C1Nc2ccc(S(=O)(=O)NCC3CCCO3)c3cccc1c23 (configuration not stated) was tested, and the Potency was inconclusive: 39.8 µM [inhibitor, partial curve, poor fit]. In the case of O=C1NC2(CCCCC2)C(=O)N1/N=C/c1ccc(O)cc1O, the Potency is reported as inconclusive: 3.16 µM [inhibitor, single point]. Cc1ccc2c(C(=O)CCl)c(C)[nH]c2c1 was tested, and the Potency was active: 10 µM. With CCn1nc(C)c(Br)c1-c1nc(-c2ccc(C)cc2)no1 the Potency was inconclusive: 89.1 µM [inhibitor, partial curve, poor fit]. In the case of O=C(Nc1scc(-c2ccc(F)cc2)c1C(=O)O)c1ccco1, the Potency is reported as inconclusive: 0.631 µM [inhibitor, full curve, poor fit]. In the case of CC1(C)CC(=O)C2=C(C1)Nc1ccccc1[S@]2=O, the Potency is reported as inconclusive: 89.1 µM [inhibitor, single point]. For CCc1ccc2occ(CC(=O)NCc3ccccc3)c2c1, the Potency was inconclusive: 70.8 µM [inhibitor, partial curve, poor fit]. COC(=O)c1c(-c2cccnc2)csc1NC(=O)c1cc(C)on1 was tested, and the Potency was inconclusive: 14.1 µM [inhibitor, partial curve, poor fit]. For Nc1c(S(=O)(=O)c2ccccc2)c2nc3ccccc3nc2n1Cc1ccco1, the Potency was inconclusive: 20 µM [inhibitor, partial curve, poor fit]. In the case of O=C(c1ccc2nc(-c3ccco3)c(-c3ccco3)nc2c1)N1CCN(c2ncccn2)CC1, the Potency is reported as inconclusive: 14.1 µM [inhibitor, partial curve, poor fit]. In the case of CCCCCCC(=O)Nc1c2c(nc3ccccc13)N(C)CC2, the Potency is reported as inconclusive: 15.8 µM [inhibitor, partial curve, poor fit]. For COc1ccccc1N1CCN(C(=O)c2ccc(NC3=NC4CS(=O)(=O)CC4S3)cc2)CC1 (configuration not stated), the Potency was inconclusive: 11.2 µM [inhibitor, full curve, poor fit].
